These are yes or no findings as the source states them, for the method shown. Some binding calls cover weakened binding; strength is not graded here.
Target: hE1 for Nedd8 (APPBP1-UBA3, NAE1-UBA3) (Homo sapiens) (UniProt Q13564)
Experiment: ITC, peptide titrated into E1

Amino acid sequences for entries named in this document (tags omitted). A change or cut given only in a name is not applied to a line headed by its entry.
UniProt Q13564: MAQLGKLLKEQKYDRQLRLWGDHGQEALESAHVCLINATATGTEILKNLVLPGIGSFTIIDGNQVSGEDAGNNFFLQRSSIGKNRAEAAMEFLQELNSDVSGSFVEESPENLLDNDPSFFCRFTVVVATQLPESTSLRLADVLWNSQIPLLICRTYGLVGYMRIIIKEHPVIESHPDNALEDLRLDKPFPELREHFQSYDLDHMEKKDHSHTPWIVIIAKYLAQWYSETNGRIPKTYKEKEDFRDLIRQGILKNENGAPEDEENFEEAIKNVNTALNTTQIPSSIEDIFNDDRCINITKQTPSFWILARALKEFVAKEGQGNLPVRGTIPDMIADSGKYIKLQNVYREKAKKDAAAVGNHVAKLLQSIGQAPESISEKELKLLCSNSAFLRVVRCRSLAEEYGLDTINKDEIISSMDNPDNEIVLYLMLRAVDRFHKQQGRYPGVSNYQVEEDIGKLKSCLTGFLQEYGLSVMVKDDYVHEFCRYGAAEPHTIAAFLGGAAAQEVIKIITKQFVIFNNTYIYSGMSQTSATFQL

Binder: MIKLFSLKQQKKEEESAGGTKGSSKK (N-terminal acetyl on Met1; C-terminal amide) [Acetyl-hUbc12^1-26]
- binding: binds
